Article PMC11585589
These are yes or no findings as the source states them, for the method shown. In cells and extracts the contact can be indirect. Tags and fused reporters may be left off the sequences shown.

Amino acid sequences for entries named in this document (tags omitted).
UniProt Q9UBF8: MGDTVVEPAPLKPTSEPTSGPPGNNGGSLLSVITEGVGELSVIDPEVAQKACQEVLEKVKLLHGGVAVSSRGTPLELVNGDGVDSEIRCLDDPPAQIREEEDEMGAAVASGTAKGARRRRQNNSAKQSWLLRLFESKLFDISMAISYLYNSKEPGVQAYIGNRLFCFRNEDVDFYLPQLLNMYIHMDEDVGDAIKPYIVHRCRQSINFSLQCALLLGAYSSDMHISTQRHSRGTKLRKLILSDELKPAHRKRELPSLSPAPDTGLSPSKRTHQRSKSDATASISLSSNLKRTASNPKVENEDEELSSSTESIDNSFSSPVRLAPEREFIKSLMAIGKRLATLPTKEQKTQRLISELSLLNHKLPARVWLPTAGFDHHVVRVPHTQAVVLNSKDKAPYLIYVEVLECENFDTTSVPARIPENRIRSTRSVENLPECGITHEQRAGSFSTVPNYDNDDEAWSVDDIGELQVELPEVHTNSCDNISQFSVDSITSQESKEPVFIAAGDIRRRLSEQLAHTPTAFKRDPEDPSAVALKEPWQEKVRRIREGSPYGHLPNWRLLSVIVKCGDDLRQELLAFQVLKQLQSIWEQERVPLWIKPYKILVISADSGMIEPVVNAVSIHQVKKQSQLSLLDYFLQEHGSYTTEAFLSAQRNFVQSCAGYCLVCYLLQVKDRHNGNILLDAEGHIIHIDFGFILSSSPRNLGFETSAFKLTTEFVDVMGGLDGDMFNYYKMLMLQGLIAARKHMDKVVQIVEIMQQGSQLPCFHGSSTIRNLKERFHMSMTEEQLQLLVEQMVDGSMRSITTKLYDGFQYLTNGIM

Assays:
[1] = biological target: T1, GST-Δ13-ARL5A T30N (human) (UniProt Q9Y689); assay: pull-down; GST-Δ13ARL5 variants on glutathione-Sepharose beads; detergent extracts of HeLa stably co-expressing GFP-PI4KB and HA-ARMH3; 4 °C overnight; blot for GFP; only the target purified
T1 sequence: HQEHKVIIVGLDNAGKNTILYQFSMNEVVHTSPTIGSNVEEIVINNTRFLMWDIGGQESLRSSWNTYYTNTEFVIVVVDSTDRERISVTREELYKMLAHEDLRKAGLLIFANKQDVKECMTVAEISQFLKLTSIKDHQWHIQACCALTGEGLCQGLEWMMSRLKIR

[2] = biological target: T2, GST-Δ13-ARL5B T30N (human) (UniProt Q96KC2); assay: as above
T2 sequence: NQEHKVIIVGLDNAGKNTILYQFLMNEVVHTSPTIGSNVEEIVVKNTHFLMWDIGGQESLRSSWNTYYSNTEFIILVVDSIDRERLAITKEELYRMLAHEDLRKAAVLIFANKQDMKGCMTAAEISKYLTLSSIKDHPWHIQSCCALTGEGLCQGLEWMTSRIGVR

In the case of “GFP-PI4KB (from UniProt Q9UBF8 1-816) (enzyme)”, the binding [1] is reported as “no binding” and the binding [2] is reported as “no binding”.
